Source: patent publication US6372278B1, “Sweetener composition” (Ajinomoto Co., Inc., priority 1998, dated 2002)
Peptide text beside a SMILES is read from it.

Experiment: Quality of sweetness compared with sucrose
Description: It is reported that the sweetness strength or sweetening potency of the synthetic high-potency sweetener, NM, is about 10,000 times that of sucrose in terms of weight ratio (Japanese Patent Kohyou Publication JP-A-8-503206). […] Further, NM has a strong astringent taste. Accordingly, the balance of the quality of sweetness properties for NM is poor when compared to sucrose. Sucrose is generally regarded as the standard for evaluating the properties or characteristics of the quality of sweetness.
It is also reported that the sweetness strength of the amino acid type synthetic sweetener, APM, is about 200 times that of sucrose in weight ratio (See Japanese Patent Kokoku Publication JP-B-47-3 1031). APM has a sweetness quality characterized by a weak early taste and a strong later taste as compared with sucrose.

Question: With `COC(=O)[C@H](Cc1ccccc1)NC(=O)[C@@H](N)CC(=O)O` [APM, Aspartame] (H-Asp-Phe-OMe) as the compound, how does the early taste read?
Answer: The early taste was “weak”.

Question: What about the later taste of the same compound?
Answer: Its later taste is “strong”.

Question: Which early taste does the source give for `COC(=O)[C@H](Cc1ccccc1)NC(=O)[C@H](CC(=O)O)NCCC(C)(C)C` [NM] here?
Answer: The early taste was “extremely weak”.

Question: What about the later taste of the same compound?
Answer: Its later taste is “extremely strong”.
